PubChem BioAssay AID1053209, Peter MacCallum Cancer Centre, 2014
Test: 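Gene losses that combine with doxorubicin to kill mouse bone cancer cells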 (follow-up of hits). Cells: mouse primary osteosarcoma cells. Reagents: single siRNA against mouse genes, 25 nM (text also states 40 nM). Timing: about 120 h (48 h before drug, then 72 h with drug). Conditions: doxorubicin 100 nM (about IC30-40), added 48 h after transfection, for 72 h. Measured: 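Viability measured by ATP luminescence with and without doxorubicin, each replicate scaled to non-targeting siRNA NT1, averaged over two replicates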. Reading the numbers: viability with doxorubicin, vs NT1: higher = more viable cells under doxorubicin; viability without drug, vs NT1: higher = more viable cells without drug. Rule for the call: 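Counted as active (class LC dox) if viability falls to 0.7 of NT1 or below under doxorubicin but stays within 0.7 to 1.1 without drug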.
Shown is a random part of about 1,580 deposited reagents. 207 of them (13%) count as active. 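Rows are single siRNAs; four siRNAs per gene were tested, a gene counting as confirmed only when at least two agree.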 Unmarked entries are inactive. The numbers tell different reagents against one gene apart. Further read-outs or replicates are left out here.

gene symbol	reagent no.	combined effect class	viability with doxorubicin, vs NT1	viability without drug, vs NT1
Bop1 (block of proliferation 1)	1	normal viability with and without drug	0.85	0.74
Bop1 (block of proliferation 1)	2	normal viability with and without drug	0.87	0.85
Bop1 (block of proliferation 1)	3	normal viability with and without drug	0.72	0.9
Bop1 (block of proliferation 1)	4	low viability only without drug	0.71	0.68
Rpl38 (ribosomal protein L38)	1	normal viability with and without drug	0.72	0.81
Rpl38 (ribosomal protein L38)	2	low viability with and without drug	0.22	0.37
Rpl38 (ribosomal protein L38)	3	low viability with and without drug	0.3	0.28
Rpl38 (ribosomal protein L38)	4	low viability with and without drug	0.34	0.4
Prkag3 (protein kinase, AMP-activated, gamma 3 non-catalytic subunit)	1	normal viability with and without drug	0.9	0.92
Prkag3 (protein kinase, AMP-activated, gamma 3 non-catalytic subunit)	2	normal viability with and without drug	0.93	1.03
Prkag3 (protein kinase, AMP-activated, gamma 3 non-catalytic subunit)	3	high viability with and without drug	1.22	1.2
Prkag3 (protein kinase, AMP-activated, gamma 3 non-catalytic subunit)	4	normal viability with and without drug	1.02	1
Copa (coatomer protein complex subunit alpha)	1	low viability only with doxorubicin; normal without drug (active)	0.5	0.76
Copa (coatomer protein complex subunit alpha)	2	low viability with and without drug	0.16	0.32
Copa (coatomer protein complex subunit alpha)	3	low viability with and without drug	0.15	0.4
Copa (coatomer protein complex subunit alpha)	4	low viability with and without drug	0.05	0.18
Nipal4 (NIPA-like domain containing 4)	1	normal viability with and without drug	0.99	0.98
Nipal4 (NIPA-like domain containing 4)	2	normal viability with and without drug	1.02	1.04
Nipal4 (NIPA-like domain containing 4)	3	low viability only without drug	0.75	0.7
Nipal4 (NIPA-like domain containing 4)	4	normal viability with and without drug	1.01	1.05
Aqp3 (aquaporin 3)	1	normal viability with and without drug	0.84	0.8
Aqp3 (aquaporin 3)	2	normal viability with and without drug	0.78	0.93
Aqp3 (aquaporin 3)	3	low viability only with doxorubicin; normal without drug (active)	0.68	0.96
Aqp3 (aquaporin 3)	4	normal viability with and without drug	1.02	1.02
Timm8b (translocase of inner mitochondrial membrane 8B)	1	normal viability with and without drug	0.92	0.86
Timm8b (translocase of inner mitochondrial membrane 8B)	2	normal viability with and without drug	0.97	1.04
Timm8b (translocase of inner mitochondrial membrane 8B)	3	normal viability with and without drug	0.83	0.98
Timm8b (translocase of inner mitochondrial membrane 8B)	4	normal viability with and without drug	0.91	1.06
Tnfrsf1a (tumor necrosis factor receptor superfamily, member 1a)	1	normal viability with and without drug	0.96	0.94
Tnfrsf1a (tumor necrosis factor receptor superfamily, member 1a)	2	normal viability with and without drug	0.94	0.93
Tnfrsf1a (tumor necrosis factor receptor superfamily, member 1a)	3	normal viability with and without drug	1.05	0.95
Tnfrsf1a (tumor necrosis factor receptor superfamily, member 1a)	4	high viability only without drug	1.08	1.1
Rnps1 (RNA binding protein with serine rich domain 1)	1	normal viability with and without drug	1	0.97
Rnps1 (RNA binding protein with serine rich domain 1)	2	low viability only with doxorubicin; normal without drug (active)	0.67	0.8
Rnps1 (RNA binding protein with serine rich domain 1)	3	normal viability with and without drug	0.8	0.9
Rnps1 (RNA binding protein with serine rich domain 1)	4	normal viability with and without drug	0.83	0.83
Rit1 (Ras-like without CAAX 1)	1	high viability only with doxorubicin	1.1	1.06
Rit1 (Ras-like without CAAX 1)	2	normal viability with and without drug	1	0.98
Rit1 (Ras-like without CAAX 1)	3	normal viability with and without drug	1.08	1.04
Rit1 (Ras-like without CAAX 1)	4	normal viability with and without drug	1.02	0.88
Atp6v0e2 (ATPase, H+ transporting, lysosomal V0 subunit E2)	1	normal viability with and without drug	1.07	1.02
Atp6v0e2 (ATPase, H+ transporting, lysosomal V0 subunit E2)	2	normal viability with and without drug	1.02	0.73
Atp6v0e2 (ATPase, H+ transporting, lysosomal V0 subunit E2)	3	normal viability with and without drug	0.92	0.98
Atp6v0e2 (ATPase, H+ transporting, lysosomal V0 subunit E2)	4	normal viability with and without drug	0.98	1.07
Rasa2 (RAS p21 protein activator 2)	1	normal viability with and without drug	1.07	1
Rasa2 (RAS p21 protein activator 2)	2	normal viability with and without drug	0.99	1.08
Rasa2 (RAS p21 protein activator 2)	3	normal viability with and without drug	1.09	1.03
Rasa2 (RAS p21 protein activator 2)	4	normal viability with and without drug	1.06	0.98
Chmp2a (charged multivesicular body protein 2A)	1	normal viability with and without drug	1.06	0.83
Chmp2a (charged multivesicular body protein 2A)	2	low viability only with doxorubicin; normal without drug (active)	0.53	0.86
Chmp2a (charged multivesicular body protein 2A)	3	normal viability with and without drug	0.88	0.99
Chmp2a (charged multivesicular body protein 2A)	4	low viability only with doxorubicin; normal without drug (active)	0.55	0.96
Ttc1 (tetratricopeptide repeat domain 1)	1	normal viability with and without drug	1.08	0.99
Ttc1 (tetratricopeptide repeat domain 1)	2	normal viability with and without drug	0.98	0.98
Ttc1 (tetratricopeptide repeat domain 1)	3	normal viability with and without drug	0.98	0.9
Ttc1 (tetratricopeptide repeat domain 1)	4	normal viability with and without drug	1.02	0.98
Eftud2 (elongation factor Tu GTP binding domain containing 2)	1	low viability with and without drug	0.26	0.43
Eftud2 (elongation factor Tu GTP binding domain containing 2)	2	low viability with and without drug	0.48	0.62
Eftud2 (elongation factor Tu GTP binding domain containing 2)	3	low viability only with doxorubicin; normal without drug (active)	0.52	0.72
Eftud2 (elongation factor Tu GTP binding domain containing 2)	4	low viability with and without drug	0.41	0.41
Hrk	1	normal viability with and without drug	1.06	1.05
Hrk	2	high viability only with doxorubicin	1.12	1.02
Hrk	3	normal viability with and without drug	0.88	0.98
Hrk	4	normal viability with and without drug	0.99	0.99
Psmd12 (proteasome (prosome, macropain) 26S subunit, non-ATPase, 12)	1	low viability only with doxorubicin; normal without drug (active)	0.44	0.72
Psmd12 (proteasome (prosome, macropain) 26S subunit, non-ATPase, 12)	2	low viability only with doxorubicin; normal without drug (active)	0.55	0.76
Psmd12 (proteasome (prosome, macropain) 26S subunit, non-ATPase, 12)	3	low viability with and without drug	0.36	0.56
Psmd12 (proteasome (prosome, macropain) 26S subunit, non-ATPase, 12)	4	low viability only with doxorubicin; normal without drug (active)	0.48	0.75
Rps14 (ribosomal protein S14)	1	normal viability with and without drug	0.87	0.96
Rps14 (ribosomal protein S14)	2	low viability with and without drug	0.26	0.48
Rps14 (ribosomal protein S14)	3	low viability with and without drug	0.46	0.7
Rps14 (ribosomal protein S14)	4	low viability with and without drug	0.32	0.4
Sf3b3 (splicing factor 3b, subunit 3)	1	low viability only with doxorubicin; normal without drug (active)	0.65	0.85
Sf3b3 (splicing factor 3b, subunit 3)	2	low viability only with doxorubicin; normal without drug (active)	0.44	0.78
Sf3b3 (splicing factor 3b, subunit 3)	3	low viability only with doxorubicin; normal without drug (active)	0.6	0.9
Sf3b3 (splicing factor 3b, subunit 3)	4	normal viability with and without drug	0.74	0.94
